Assay results from patent US12012414B1, “Imidazo[1,5-a]pyrido[4,3-e]pyrimidines as CK2 inhibitors” (KING FAISAL UNIVERSITY, priority 2024, dated 2024).
pIC50: −log10 of the molar value.

Columns and labels:
Assay type in all cases: cell-based
MCF7 (breast) = experiment: In vitro cytotoxic activity (MTT) assay, MCF7; settings: Homo sapiens; MCF7 cells, exposed for 96 hours, 50% inhibition of cell proliferation; read-out: Cytotoxicity activity IC50, MCF7 (breast)
Experimental: (§1) Compounds 1-16 were screened for their in vitro cytotoxic activity utilizing a 3-(4,5-dimethyl-thiazol-2-yl)-2,5-diphenyltetrazolium bromide (MTT) assay against selected cancer human cell lines consisting of PC3 (prostate), HCT116 (colon), A375 (melanoma), H1299 (lung), MIAPaCa-2 (pancreas), HL60 (leukemia), MCF7 (breast), MDA-MB-231 (breast) (T. Mosmann, J. Immunol. Meth., 1983, 65, 55-63). The cells were cultured at 37° C. in RMPI1640 medium supplemented with 10% fetal bovine serum, 50 IU/mL penicillin, and 50 μg/mL streptomycin in a 5% CO2 incubator. All cells were sub-cultured 3 times/week by trypsinisation. Viable cells were seeded and allowed to adhere for 12 hours before a test drug was added in 96-well plates at an initial density of 1.0×10^5 cells/mL. Tumor cell lines were separately exposed to various concentrations of the tested compounds followed by incubation at a temperature of 37° C. during 96 hours inside a medium of fresh RMPI 1640. Cells were subsequently incubated at 37° C. using MTT at 0.5 mg/mL during 4 hours. After removal of supernatant, formazan crystals were dissolved in isopropanol and the optical density was measured at 570 nm. CX-4945 was used as a positive control.

HCT116 (colon) = experiment: In vitro cytotoxic activity (MTT) assay, HCT116; settings: Homo sapiens, HCT-116; HCT116 cells, exposed for 96 hours, 50% inhibition of cell proliferation; read-out: Cytotoxicity activity IC50, HCT116 (colon)
Experimental: as §1

MIAPaCa-2 (pancreas) = experiment: In vitro cytotoxic activity (MTT) assay, MIAPaCa-2; settings: Homo sapiens, MIA PaCa-2; MIAPaCa-2 cells, exposed for 96 hours, 50% inhibition of cell proliferation; read-out: Cytotoxicity activity IC50, MIAPaCa-2 (pancreas)
Experimental: as §1

MDA-MB-231 (breast) = experiment: In vitro cytotoxic activity (MTT) assay, MDA-MB-231; settings: Homo sapiens; MDA-MB-231 cells, exposed for 96 hours, 50% inhibition of cell proliferation; read-out: Cytotoxicity activity IC50, MDA-MB-231 (breast)
Experimental: as §1

PC3 (prostate) = experiment: In vitro cytotoxic activity (MTT) assay, PC3; settings: Homo sapiens, PC-3; PC3 cells, exposed for 96 hours, 50% inhibition of cell proliferation; read-out: Cytotoxicity activity IC50, PC3 (prostate)
Experimental: as §1

HL60 (leukemia) = experiment: In vitro cytotoxic activity (MTT) assay, HL60; settings: Homo sapiens, HL-60; HL60 cells, exposed for 96 hours, 50% inhibition of cell proliferation; read-out: Cytotoxicity activity IC50, HL60 (leukemia)
Experimental: as §1

A375 (melanoma) = experiment: In vitro cytotoxic activity (MTT) assay, A375; settings: Homo sapiens, A-375; A375 cells, exposed for 96 hours, 50% inhibition of cell proliferation; read-out: Cytotoxicity activity IC50, A375 (melanoma)
Experimental: as §1

H1299 (lung) = experiment: In vitro cytotoxic activity (MTT) assay, H1299; settings: Homo sapiens, NCI-H1299; H1299 cells, exposed for 96 hours, 50% inhibition of cell proliferation; read-out: Cytotoxicity activity IC50, H1299 (lung)
Experimental: as §1

O=C(O)c1ccc2c(c1)nc(Nc1cccc(Cl)c1)c1ccncc12 [CX-4945, reference compound]
pIC50 (MCF7 (breast)): 5.04 | pIC50 (HCT116 (colon)): 5.64 | pIC50 (MIAPaCa-2 (pancreas)): 6.00 | pIC50 (MDA-MB-231 (breast)): 5.21 | pIC50 (PC3 (prostate)): 5.70 | pIC50 (HL60 (leukemia)): 5.43 | pIC50 (A375 (melanoma)): 5.39 | pIC50 (H1299 (lung)): 5.64
